Experimental data: PubChem BioAssay AID652272 (Drosophila RNAi Screening Center, 2013)
The screen tested about 21,000 reagents; shown is an unselected part of those that have a named target and a result. In the full data, 503 (2.4%) got an active call. 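Raw plate light values, not normalised; calls rest on replicate z-scores that were not deposited; hits include reporter decreases as well as increases.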 The numbers tell different reagents against one gene apart. A plus sign joins genes that one reagent is predicted to hit. Not given: the amount of reagent, the time to read-out.

Test: 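Genes whose knock-down decreases or increases Hedgehog reporter output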 (primary screen)
Cell system: Drosophila clone 8 (Cl8) cells
Knock-down reagent: long dsRNA against Drosophila genes
Detection: 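Plate reader light from a firefly reporter under a ptc promoter fragment that responds to Hedgehog, with Renilla light as transfection reference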
Scale: firefly Hh reporter signal: higher = more ptc reporter light; Renilla reference signal: higher = more Renilla control light
Hit rule: 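Called a hit if the two-replicate mean z-score lies below -2 or above +3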
Calls: active = hit: reporter lowered or raised; inactive = not a hit

gene knocked down	dsRNA no.	firefly Hh reporter signal, replicate 1	firefly Hh reporter signal, replicate 2	firefly Hh reporter signal, replicate 3	Renilla reference signal, replicate 1	Renilla reference signal, replicate 2	activity call
fdl	1	83700	53876		2406	4197	inactive
CG5011	1	1.26e5	1.06e5		5077	4497	inactive
CG17219	1	1.01e5	76036		1602	5368	inactive
msi	1	4.62e5	89517		25904	2853	inactive
CG34426	1	49644	69144		6880	4550	inactive
DCAF12	1	95253	80396		3536	2961	inactive
CG31898	1	4.35e5	1.56e5		22016	6578	inactive
Unc-76	1	1.21e5	1.41e5		5036	5623	inactive
Unc-76	2	1.18e5	2.21e5		5014	9056	inactive
mip40	1	1.05e5	81189		6342	4139	inactive
BORCS5	1	1.38e5	99584		3062	2109	inactive
Ste:CG33238 + Ste:CG33241 + Ste:CG33236 + 11 more	1	5.44e5	1.73e5		32583	4029	inactive
Ste:CG33238 + Ste:CG33241 + Ste:CG33236 + 11 more	2	1.03e5	2.31e5		3757	9564	inactive
Atg10 + CG18853 + CG12822	1	4.52e5	1.87e5		30800	5499	active
Spn85F	1	4.81e5	1.08e5		4842	4842	inactive
CG33922	1	7.24e5	3.07e5		40618	12528	inactive
CG11449	1	60301	82882		1366	2632	inactive
Ripalpha	1	1.11e5	63723		3365	6269	inactive
CG9632	1	83079	98464		2011	2629	inactive
CG2059	1	98224	2.07e5		3064	8090	inactive
CG30356	1	1.30e5	2.28e5		3430	9378	inactive
Gpo1	1	1.20e5	88617		5701	4125	inactive
eIF2Bgamma	1	98423	87680		4717	3686	inactive
Flo1	1	91222	59779		4538	2697	inactive
Gpdh1	1	1.73e5	96384		5940	4673	inactive
CG31323	1	6.42e5	1.66e5		30933	5330	inactive
CG34461	1	56181	79152		3897	4672	inactive
CG10663	1	65299	33980	31744	1338	582	inactive
CG7196 (retired record)	1	5.08e5	2.35e5		27360	10389	inactive
CG7196 (retired record)	2	75675	40691		2004	3200	inactive
CG32432	1	44951	26512		2269	1369	active
CG32432	2	33034	35052		1546	1577	active
CG32432	3	88872	1.04e5		3258	3108	inactive
SP1029	1	84498	88093		2234	2795	inactive
Prosbeta7	1	42176	52896		3437	3643	active
CG11050	1	66310	44118		3129	1369	inactive
CG15649	1	1.10e5	75929		2806	7303	inactive
CG30339	1	1.15e5	2.56e5		22900	8496	inactive
Idh	1	92582	53392		3192	2192	inactive
CG13042	1	1.49e5			2866	4227	inactive
CG6749	1	32019	61737	59308	5266	4024	inactive
twe	1	70594	70696		3427	3485	inactive
RASSF8	1	98640	77600		2166	2121	inactive
CG30031 + deltaTry + CG30025 + 1 more	1	1.08e5	1.98e5		4108	7795	inactive
St3	1	95352	54364		2198	5040	inactive
St3	2	1.28e5	57876		4683	2416	inactive
beat-Ib	1	1.09e5	56854		2797	4772	inactive
CG33253	1	1.02e5	3.60e5		2803	14899	inactive
CG33253	2	1.42e5	3.87e5		5088	16332	inactive
Cpr62Bb	1	1.05e5	48658		3372	3828	inactive
CG15734	1	75826	3.39e5		2893	12688	inactive
CG10950	1	69216	50982		1824	4162	inactive
CG13743	1	8.17e5	2.02e5	1.81e5	7541	5436	inactive
CG13743	2	72768	26012		1537	1832	inactive
CG5391	1	9.10e5	2.65e5		47186	5846	inactive
nan	1	75419			2440	2209	inactive
CG14990	1	54407	32459		1680	2291	inactive

Quoted from above, 5 entries:
gene knocked down	dsRNA no.	firefly Hh reporter signal, replicate 1	firefly Hh reporter signal, replicate 2	firefly Hh reporter signal, replicate 3	Renilla reference signal, replicate 1	Renilla reference signal, replicate 2	activity call
Gpo1	1	1.20e5	88617		5701	4125	inactive
eIF2Bgamma	1	98423	87680		4717	3686	inactive
Flo1	1	91222	59779		4538	2697	inactive
Gpdh1	1	1.73e5	96384		5940	4673	inactive
CG31323	1	6.42e5	1.66e5		30933	5330	inactive
